# According to PubChem BioAssay AID504444 (National Center for Advancing Translational Sciences (NCATS), 2011):
# The campaign covered roughly 360,000 compounds. About 7,500 (2.1%) were called active. Inconclusive results, whose numbers are uncertain, are shown with a selection of clear calls. The call rests on the fitted dose curve; in most records, active means well fitted inhibition curve with a large enough effect; inconclusive means small, poorly fitted or top-dose-only effect, or effect the other way; inactive means flat fitted curve, though single readings scatter. Where the call is inconclusive, the potency comes from a doubtful curve fit.
# Assay: Nrf2 qHTS screen for inhibitors; further: nearly all actives have a fitted effect of over 60% in size
# Conditions: A549 ARE-Fluc reporter, luciferase luminescence, 18-24 h; activity change, negative = inhibition: at 46 µM (top of the series)
# Procedure, shortened: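 Nrf2 function is reported as luminescence of an ARE-controlled luciferase in A549 cells. Compounds were tested at several concentrations, and a CellTiter-Fluor read on the same wells flagged cytotoxicity.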
# On the % scale 0 is the no-effect control and ±100 the full control effect; potency means the concentration at half of the fitted maximal effect.
SMILES,Potency,"activity change, negative = inhibition"
FC(F)(F)COc1nc(N2CCOCC2)nc(N(c2ccccc2)c2ccccc2)n1,"inconclusive: 29.1 µM [falling, single point]",
O=C(NCCC1=CCCCC1)c1ccc(Cl)c(S(=O)(=O)N2CCOCC2)c1,"inconclusive: 20.6 µM [falling, single point]",
COc1ccc2ccccc2c1/C=N/Nc1cccc(C(=O)O)c1,"inconclusive: 10.3 µM [activator, single point]",
Cc1ccc(Cl)cc1N1CCN(C(=O)c2cc3ccc4cccnc4c3[nH]2)CC1,,inactive: 16.5%
O=C(COC(=O)C1CC2CCCC(C1)C2=O)Nc1ccc(Cl)cn1 (stereo unspecified),,inactive: 7.12%
CC(=O)c1sc(Nc2cccc(C)c2)nc1C,"inconclusive: 3.66 µM [activator, full curve, poor fit]",
CN(CC(=O)Nc1cccc(S(=O)(=O)NC2=NCCCCC2)c1)Cc1ccc(C(C)(C)C)cc1,,inactive: -22.6%
CCCC(C)c1nnc(NC(=O)C2CC(=O)N(CCc3ccc(F)cc3)C2)s1 (stereo unspecified),"inconclusive: 4.11 µM [activator, full curve, poor fit]",
COc1cccc(OCc2cc(C(=O)N3CCN(C4CCCC4)CC3)no2)c1,"inconclusive: 16.4 µM [activator, single point]",
Cc1ccc(-c2nnc(NCc3nc4ccccc4[nH]3)c3ccccc23)cc1S(=O)(=O)N(C)C,"inconclusive: 23.1 µM [falling, partial curve, poor fit]",
Cc1nnc(NC(=O)CSc2nnc(-c3ccco3)o2)s1,"inconclusive: 18.4 µM [activator, partial curve]",
CCOc1ccc(C(=O)n2cnnc2N)cc1,active: 13 µM,
COc1ccc(CCNC2CCC(c3ccccc3)CC2)cc1 (stereo unspecified),"inconclusive: 16.4 µM [activator, partial curve]",
COc1ccc(C)cc1NC(=O)c1c2c(nc3ccccc13)C(=O)N(C1CCCCC1)C2,"inconclusive: 29.1 µM [falling, single point]",
COc1cc(CNC(C)(C)CO)ccc1OCC(=O)Nc1ccc(Br)cc1,"inconclusive: 25.9 µM [activator, single point]",
CCN(C(=O)CSc1ncc2c(n1)-c1cc(Cl)ccc1N(Cc1ccccc1)S2(=O)=O)c1cccc(C)c1,,inactive: -3.05%
Cc1cccc(N2CCN(CC(=O)Nc3ccccc3[N+](=O)[O-])CC2)c1C,active: 20.6 µM,
CCC(SC1=N/C(=C/c2ccccc2OC)C(=O)N1c1ccccc1)C(=O)Nc1cc(C)on1 (stereo unspecified),"inconclusive: 36.6 µM [falling, partial curve, poor fit]",
CCCNC(=O)c1ccc(C2SCC(=O)N2Cc2ccccc2)cc1 (stereo unspecified),,inactive: -6.4%
Cc1ccc(-c2nc3ccc(C(=O)O)cc3nc2-c2ccc(C)cc2)cc1,"inconclusive: 18.4 µM [falling, single point]",
COc1ccc(OC)c(C2Nc3c(C)cc(C)cc3-c3cc(C)nn32)c1 (stereo unspecified),"inconclusive: 32.6 µM [falling, single point]",
S=c1[nH]nc(COc2ccccc2)n1/N=C/C=C/c1ccco1,,inactive: 10%

SMILES,Potency,"activity change, negative = inhibition"
C/C(N)=C(/C#N)C(=O)CSc1nc2ccccc2c(=O)n1-c1ccc(C)c(Cl)c1,"inconclusive: 7.31 µM [falling, partial curve]",
Cc1ccc(-c2nnc(SCC(=O)Nc3cccc(C(=O)N4CCOCC4)c3)n2C)cc1,"inconclusive: 4.11 µM [activator, full curve, poor fit]",
COc1cccc(NC(=O)CN2CCC(C)CC2)c1,"inconclusive: 20.6 µM [activator, single point]",
O=S(Cc1ccc(Br)cc1)Cc1nnc(SCc2c(Cl)cccc2Cl)n1-c1ccccc1 (stereo unspecified),"inconclusive: 14.6 µM [falling, partial curve]",
CCOc1ccccc1NC(=O)Cn1ncc2c([nH]c3ccccc32)c1=O,"inconclusive: 29.1 µM [activator, single point]",
Cc1ccccc1OCC(=O)Nc1nnc(S(=O)(=O)N2CCCC2)s1,"inconclusive: 23.1 µM [activator, single point]",
COc1ccc(C2=CC(=O)C[C@H](c3ccc(F)cc3)C2)cc1OC,"inconclusive: 23.1 µM [falling, single point]",
CC(C)(C)C(=O)Nc1ccc(NC(=O)c2ccco2)nc1,active: 2.06 µM,
Cc1ccc(C2=NS(=O)(=O)N(C)C(C(=O)NCc3ccccc3)=C2)cc1,,inactive: 6.04%
CN=c1scc(-c2ccco2)n1/N=C/c1ccc(O)c(O)c1,"inconclusive: 29.1 µM [falling, single point]",
CCN(CC)S(=O)(=O)c1cccc(C(=O)Nc2ccc3c(c2)OCO3)c1,"inconclusive: 3.26 µM [activator, full curve, poor fit]",
O=C(COC(=O)c1c2c(nc3ccccc13)/C(=C/c1cccc([N+](=O)[O-])c1)CCC2)NC1CCS(=O)(=O)C1 (stereo unspecified),active: 23.1 µM,
CC[C@]12c3[nH]c4cc(-c5ccco5)ccc4c3CCN1C(=O)[C@@H](CC(=O)NCC13CC4CC(CC(C4)C1)C3)C[C@@H]2C(=O)N1CCN(C(=O)C2CC2)CC1,"inconclusive: 29.1 µM [falling, single point]",
Cc1sc(NC(=O)/C=C/c2ccc3c(c2)OCO3)nc1-c1ccccc1,"inconclusive: 1.46 µM [falling, partial curve, poor fit]",
COc1cc(OC)c(NC(=O)c2c(N3CCCC3=O)c3cc(C)ccc3n2C)cc1Cl,"inconclusive: 10.3 µM [activator, partial curve]",
CC1(C)Oc2c(ccc(O)c2CN2CCOCC2)C2=C1CCCC2,,inactive: 7.64%
CN(CC1CCCO1)S(=O)(=O)c1ccc(C(=O)Nc2nc(-c3ccccn3)cs2)cc1 (stereo unspecified),active: 5.17 µM,
N#Cc1cccc(C#N)c1Oc1ccc(S(=O)(=O)Nc2ccc(Cl)cc2)cc1,"inconclusive: 18.4 µM [falling, single point]",
N#C/C(=C\c1ccc(O)cc1)c1nc2ccccc2o1,,inactive: 8.75%
CCCCCOc1ccc(C(=O)CCC(=O)NC(C)c2ccc(S(N)(=O)=O)cc2)cc1 (stereo unspecified),"inconclusive: 20.6 µM [falling, partial curve, poor fit]",
Clc1ccc(-c2ccnc(-n3cccc3)n2)s1,,inactive: 21.4%
N#CCCN1CCN(C(=S)c2ccc(-c3cccc(Cl)c3)o2)CC1,"inconclusive: 3.66 µM [activator, partial curve, poor fit]",

SMILES,Potency,"activity change, negative = inhibition"
N#C/C(C(=O)NCc1ccccc1)=C1/N=C(NC(=O)c2cccs2)c2ccccc21,"inconclusive: 18.4 µM [falling, single point]",
Cc1cnc(CNC(=O)CC2C(=O)NCCN2Cc2ccccc2C(F)(F)F)cn1 (stereo unspecified),,inactive: 13.5%
NC(=O)c1cc(Br)cc(C2CCCCC2)c1O,"inconclusive: 6.51 µM [falling, single point]",
COc1cccc(C2c3c(C)nn(-c4ccc([N+](=O)[O-])cc4)c3N=C3C(=O)Nc4ccccc4N32)c1 (stereo unspecified),"inconclusive: 13 µM [falling, partial curve]",
COc1ccccc1CCN1COc2c(cc3c(C)c(C)c(=O)oc3c2C)C1,"inconclusive: 29.1 µM [activator, single point]",
COc1ccccc1-c1n[nH]c(=S)n1N,,inactive: 6%
O=C(N1CCOCC1)N1CCN(S(=O)(=O)N2CCCCC2)CC1,"inconclusive: 11.6 µM [activator, partial curve, poor fit]",
CN(C)Cc1nc2ccccc2c(=O)n1Cc1nc(-c2cccc([N+](=O)[O-])c2)cs1,,inactive: -22.9%
COc1ccc(C(CC(=O)NCc2ccco2)c2ccc(F)cc2)cc1 (stereo unspecified),,inactive: 1.41%
COc1ccc(/C=N/Nc2ncnc3sc4c(c23)CCCC4)cc1O,"inconclusive: 23.1 µM [activator, single point]",
COc1ccc(CNC(=O)CN2C(=O)CSc3ccc(S(=O)(=O)N(C)C)cc32)cc1,"inconclusive: 23.1 µM [activator, partial curve, poor fit]",
Cc1cccc(OC(C)C(=O)Nc2nonc2-c2ccc(Br)cc2)c1C (stereo unspecified),"inconclusive: 5.8 µM [falling, partial curve, poor fit]",
COc1ccc(OC)c(-c2csc(NC(=O)c3ccc4c(c3)OCO4)n2)c1,"inconclusive: 1.64 µM [activator, partial curve, poor fit]",
O=S(=O)([N-]c1nc2ccccc2nc1-n1cc[n+](Cc2ccccc2)c1)c1ccc(Br)cc1,"inconclusive: 2.31 µM [activator, full curve]",
COc1ccc(NC(=O)COc2ccc(N(C)S(=O)(=O)c3ccc(Cl)cc3)cc2)cc1OC,active: 9.2 µM,
O=C(N/N=C/c1ccc2c(c1)OCO2)c1ccc(Br)o1,"inconclusive: 4.11 µM [activator, full curve]",
N#Cc1c(NCc2ccccc2)ccnc1Cl,"inconclusive: 29.1 µM [falling, single point]",
CCC(=O)N1CCN(c2ccc(NC(=O)c3cc4ccccc4o3)cc2)CC1,"inconclusive: 7.31 µM [falling, partial curve]",
CCOc1ccc(N2CC(c3nc4ccccc4n3CCCCOc3ccc(OC)cc3)CC2=O)cc1 (stereo unspecified),"inconclusive: 29.1 µM [falling, single point]",
Cc1cc(=O)n2nc(N3CCC(C(=O)Nc4c(C)cccc4C)CC3)sc2n1,"inconclusive: 29.1 µM [activator, single point]",
CC(Sc1nc2ccccc2c(=O)n1C)C(=O)NC1CCCCC1C (stereo unspecified),"inconclusive: 3.26 µM [falling, partial curve]",
CCc1ccccc1Nc1ncnc2ccccc12,"inconclusive: 29.1 µM [activator, single point]",

# Full records, quoted from the list:
# CCOc1ccc(C(=O)n2cnnc2N)cc1 is listed with Potency: active: 13 µM
# COc1cccc(NC(=O)CN2CCC(C)CC2)c1 is listed with Potency: inconclusive: 20.6 µM [activator, single point]
